Source: PubChem BioAssay AID540256 (National Center for Advancing Translational Sciences (NCATS), 2011)
In all, about 300,000 compounds went through this assay and about 3,700 (1.2%) were called active. Inconclusive means that the source gave no clear call. Such entries were picked first, then a sample of the others. Calls follow the shape of the full dose curve; tested in HEK293 cells. Where the call is inconclusive, the potency comes from a doubtful curve fit.

test: qHTS for Inhibitors of binding or entry into cells for Lassa Virus; settings: Lassa virus pseudotype entry inhibition, cell reporter; activity change, negative = inhibition: at 37.9 µM (top of the series) unless noted; also: nearly all actives have a fitted effect of over 50% in size
% is scaled to controls: 0 for no effect and ±100 for the full control effect; potency is read from the fitted curve at half-maximal effect.

SMILES	activity change, negative = inhibition	Potency
CCCOc1cccc(-c2nnc(N)s2)c1	inactive: -9.72%	
N#Cc1ccccc1Cn1c(=O)n(-c2ccc(F)c(Cl)c2)c(=O)c2sccc21		inconclusive: 6.31 µM [activator, single point]
CC(C)Oc1ccc(C(=O)Nc2ccc(N3CCN(C(=O)c4ccco4)CC3)cc2)cc1		inconclusive: 17.8 µM [inhibitor, partial curve, poor fit]
COc1ccccc1OCC(=O)N1CCCC(Nc2ccc(C)c(C)c2)C1 (stereo not drawn)	inactive: -13.4%	
CCOC(=O)CNC(=O)CN1C(=O)CC(c2ccccc2)S(=O)(=O)c2ccccc21 (stereo not drawn)	inactive: 4.94%	
CC1CC(C)CN(CCOc2ccc(Cl)cc2Cl)C1 (stereo not drawn)		inconclusive: 29.1 µM [inhibitor, single point]
CN(C)S(=O)(=O)c1cccc(NC(=O)CCCSc2ccccc2)c1		inconclusive: 20 µM [inhibitor, partial curve, poor fit]
COc1ccc(C2C(C(=O)N3CCCCC3)c3ccccc3C(=O)N2C)cc1 (stereo not drawn)		inconclusive: 6.51 µM [inhibitor, partial curve]
O=C(Cn1c(SCCOc2ccccc2Cl)nc2ccccc21)N1CCCCC1	inactive: -26.1% [at 46.1 µM]	
O=C(O)c1ccc(-n2[nH]c3c(c2=O)CCCC3)cc1		inconclusive: 14.1 µM [activator, partial curve, poor fit]
COc1ccc([C@@H]2Sc3ccccc3N(CCN(C)C)C(=O)[C@@H]2OC(C)=O)cc1		active: 2.31 µM
COc1cccc(-c2nnc3n2N=C(c2cc(OC)ccc2OC)CS3)c1		inconclusive: 14.6 µM [inhibitor, single point]
CC(C)(C)NC(=O)CCN(/N=C/c1ccccc1O)C1=NS(=O)(=O)c2ccccc21		inconclusive: 2.82 µM [inhibitor, single point]
COc1cc(/C=C(\C#N)c2nc3ccccc3[nH]2)c([N+](=O)[O-])cc1OCc1ccccc1		inconclusive: 17.8 µM [inhibitor, partial curve, poor fit]
CCOP(=O)(OCC)c1cc(CC)ccc1O		inconclusive: 6.51 µM [activator, partial curve, poor fit]
CSc1ccccc1NC(=O)C1CC(c2ccccc2Cl)=NO1 (stereo not drawn)		inconclusive: 35.5 µM [inhibitor, single point]
Cc1ccccc1OCCn1cc(C=O)c2ccccc21	inactive: -29.1%	
COc1c(Cl)cc(Cl)cc1C(=O)Nc1ccc(NC(=O)c2cccs2)cc1		inconclusive: 20.6 µM [inhibitor, single point]
Cc1cc(OCC(=O)NNC(=O)c2cccs2)ccc1Br	inactive: 14.4% [at 46.1 µM]	
CN(C)S(=O)(=O)c1cc(NC(=O)CN2C(=O)NC3(CCCc4ccccc43)C2=O)ccc1Cl (stereo not drawn)		inconclusive: 35.5 µM [inhibitor, single point]
COC(=O)c1[nH]c2ccccc2c1NC(=O)c1ccccc1[N+](=O)[O-]	inactive: -0.933%	
O=C(NCc1nnnn1-c1cccc(F)c1)c1ccc(S(=O)(=O)N2CCOCC2)cc1		inconclusive: 4.47 µM [activator, full curve, poor fit]
C=CCn1c(SCC(=O)c2ccc(Br)cc2)nnc1C(CC(C)C)NC(=O)c1cccs1 (stereo not drawn)		inconclusive: 0.0046 µM [activator, full curve, poor fit]

SMILES	activity change, negative = inhibition	Potency
Cc1ccc(NC(=O)CCl)c(C)c1		inconclusive: 12.6 µM [inhibitor, partial curve, poor fit]
CCCC(C(=O)NC1CCCC1)N(Cc1ccc(OC)cc1)C(=O)c1snc(C(N)=O)c1N (stereo not drawn)		inconclusive: 35.5 µM [inhibitor, partial curve, poor fit]
O=[N+]([O-])c1ccccc1N=Nc1ccc(O)cc1O	inactive: -7.45%	
CCn1c(N)c(C(=O)NCCOC)sc1=S	inactive: -10.3%	
O=C(NCC1CCCCC1)c1cc2ccccc2cc1O		inconclusive: 8.91 µM [inhibitor, partial curve, poor fit]
CC(=O)c1cnc2cc(-c3ccc(C)cc3)nn2c1C		inconclusive: 1.3 µM [activator, full curve]
CCOc1ccccc1Nc1sc(C(=O)c2ccc(Cl)cc2)c(N)c1C#N		inconclusive: 3.16 µM [activator, single point]
COC(=O)C(C)N1C(=O)S/C(=C/c2cc(C)n(C(C)C)c2C)C1=O (stereo not drawn)	inactive: -26.9%	
O=C(CSc1nc(-c2ccco2)cc(C(F)(F)F)n1)NCC1CCCO1 (stereo not drawn)	inactive: 10.2%	
CC1CN(C(=O)COC(=O)/C=C/c2cccc([N+](=O)[O-])c2)CC(C)O1 (stereo not drawn)		inconclusive: 7.08 µM [inhibitor, partial curve, poor fit]
O=C(Nc1cc(S(=O)(=O)Nc2ccc(Cl)cc2)ccc1N1CCCCC1)c1ccc(F)cc1Cl		inconclusive: 10.3 µM [inhibitor, partial curve, poor fit]
CCN(CC)C(=O)c1cnn(-c2ccccc2)c1NC(=O)c1ccccc1F	inactive: -15.2%	
O=C(c1ccc2c(=O)n3c(nc2c1)CCCCC3)N1CCN(C(c2ccccc2)c2ccccc2)CC1		active: 16.4 µM
Cc1ccc(C(C)C)c(OCC(=O)Nc2ccc(N3CCOCC3)cc2N2CCOCC2)c1	inactive: -15.6%	
Cc1cc(Nc2cccc(Cl)c2)nc2ccc(NC(=O)c3ccc(F)cc3Cl)cc12		inconclusive: 22.4 µM [inhibitor, single point]
CCCC1S/C(=N/N=C/c2ccc(C)cc2)N(Cc2ccc(OC)cc2)C1=O (stereo not drawn)		inconclusive: 29.1 µM [inhibitor, partial curve, poor fit]
CCC(=O)N1CCc2cc(S(=O)(=O)CCC(=O)N(C)c3ccc(OC)cc3)ccc21	inactive: 9.03% [at 46.1 µM]	
NC(=S)NN=C1c2cc(OCCN3CCOCC3)ccc2-c2ccc(OCCN3CCOCC3)cc21		inconclusive: 5.62 µM [inhibitor, single point]
O=C(O)CCS(=O)(=O)c1cccc2cccnc12		inconclusive: 2.06 µM [activator, full curve, poor fit]
Clc1cccc(Cl)c1COn1nnc2ccccc21	inactive: -27.4% [at 14.3 µM]	
CN(Cc1ccccc1)C(=O)CSc1nc2c(c(C(F)(F)F)n1)CCc1ccccc1-2	inactive: -17.3%	
CCOc1ccc(Nc2ncnc(N)n2)cc1	inactive: 19.2%	
Fc1ccc(C2=NC(c3cccc(C(F)(F)F)c3)=Nc3ccccc3N2)cc1		inconclusive: 0.631 µM [activator, full curve, poor fit]

Pulled by structure from the entries so far (4):
SMILES	activity change, negative = inhibition	Potency
Cc1ccc(NC(=O)CCl)c(C)c1		inconclusive: 12.6 µM [inhibitor, partial curve, poor fit]
CCn1c(N)c(C(=O)NCCOC)sc1=S	inactive: -10.3%	
Cc1cc(Nc2cccc(Cl)c2)nc2ccc(NC(=O)c3ccc(F)cc3Cl)cc12		inconclusive: 22.4 µM [inhibitor, single point]
O=C(NCC1CCCCC1)c1cc2ccccc2cc1O		inconclusive: 8.91 µM [inhibitor, partial curve, poor fit]

More entries:

SMILES	activity change, negative = inhibition	Potency
COc1ccc(NC(=S)N(Cc2ccc(N(C)C)cc2)Cc2ccco2)cc1		inconclusive: 7.31 µM [inhibitor, partial curve]
CC(NCC(O)c1ccc([N+](=O)[O-])cc1)C12CC3CC(CC(C3)C1)C2 (stereo not drawn)		inconclusive: 35.5 µM [inhibitor, single point]
COc1ccc(-c2cc(C(F)F)n3ncc(C(=O)N4CCc5ccccc5C4)c3n2)cc1		inconclusive: 22.4 µM [inhibitor, single point]
CSc1ccc(CCNS(=O)(=O)c2c(C)[nH]c(C)c2C(=O)N2CCCCC2)cc1		inconclusive: 28.2 µM [inhibitor, single point]
Cc1ccsc1C1Nc2ccccc2-c2nc3ccccc3n21 (stereo not drawn)	inactive: -9.16%	
COc1ccccc1N1CCN(C(=O)CCNS(=O)(=O)c2cc(Br)cnc2N)CC1		inconclusive: 35.5 µM [inhibitor, single point]
O=C(COc1ccc(F)cc1)c1ccc2c(c1)CCCC2		inconclusive: 35.5 µM [inhibitor, single point]
CC1(C)Oc2ccc(NC(=O)C3COc4ccccc4O3)cc2O1 (stereo not drawn)		inconclusive: 18.3 µM [inhibitor, single point]
CCC(C)(c1ccc(C=O)s1)c1ccc(C=O)s1		inconclusive: 14.6 µM [inhibitor, single point]
CCOC(=O)N1CCN(C(=O)c2cnn3c(C)c(Cc4ccc(C)cc4)c(C)nc23)CC1		inconclusive: 22.4 µM [inhibitor, single point]
COc1cc([C@H]2c3[nH]c4ccccc4c3C[C@H]3C(=O)N4[C@@H](c5cc(OC)c(OC)c(OC)c5)c5[nH]c6ccccc6c5C[C@H]4C(=O)N23)cc(OC)c1OC		inconclusive: 23.1 µM [inhibitor, single point]
Clc1ccc(-c2ccc(/C=N/Nc3cc(N4CCOCC4)nc(N4CCOCC4)n3)o2)cc1	inactive: 6.06%	
CSc1nc2ccccc2cc1/C=C(\C#N)c1ccccc1		inconclusive: 22.4 µM [inhibitor, single point]
CC(Cc1n[nH]c(=S)n1N)c1ccccc1 (stereo not drawn)		inconclusive: 1 µM [inhibitor, single point]
Cc1ccc(-c2cc(C(=O)N(C)Cc3cnn(C)c3C)c3cc(Br)ccc3n2)cc1		inconclusive: 15.8 µM [inhibitor, single point]
c1ccc(-c2nc(NCCCn3ccnc3)c3ccccc3n2)cc1		inconclusive: 35.5 µM [inhibitor, single point]
CC(C)(C)c1ccc(OCC(=O)Nc2c(C(=O)c3ccc(F)cc3)oc3ccccc23)cc1	inactive: 3.88% [at 46.1 µM]	
O=C(Nc1ncc(Cc2ccc(SC(F)F)cc2)s1)c1ccc(OC(F)F)cc1		inconclusive: 0.651 µM [inhibitor, full curve]
Cc1cc2cc(CN(Cc3ccco3)S(=O)(=O)c3c(C)ccc4nsnc34)c(=O)[nH]c2cc1C		active: 8.2 µM
CC(C)Nc1ncnc2ccc(Br)cc12		inconclusive: 13 µM [inhibitor, partial curve, poor fit]
O=C(NNC(=O)c1ccccc1O)c1ccc(Cl)cc1	inactive: -1.53%	
NC(=O)c1ccsc1NC(=O)COc1ccccc1		inconclusive: 3.66 µM [activator, single point]
